A short description of this assay: qHTS Assay for Lipid Storage Modulators in Drosophila S3 Cells.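 As to cell number change: cells counted by Cell Tracker Red CMTPX staining in the red channel.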 The settings on record: BODIPY lipid droplet fluorescence, 18-24 h; for cell number change: measured here: cell count max response, cells fed with added oleic acid. Summed up: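 Drosophila S3 cells loaded with oleic acid (400 uM, as added) and compounds at several concentrations; lipid droplets imaged by 488-nm laser-scanning cytometry, 500–530 nm intensity and object ratio to cell channel. Percent activity normalized to 20 uM Triacsin C.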
In general terms: qHTS replaces the single test concentration by a dilution series.

Where [1] appears, read: measured here: lipid fluorescence (Fed channel) AC50, cells fed with added oleic acid.
[2] abbreviates: measured here: cell number channel AC50, cells fed with added oleic acid.

This is one part of the list. The main result of the screen is listed elsewhere. These columns were measured beside it and carry no call. Most of these compounds were active or inconclusive in the main read-out, so they are no random draw. Words in brackets tell the shape of the fitted curve; partial curves, single points and poor fits give uncertain potencies.

As for `Cc1c(C(C)(C)O)[nH]c2cc(C(F)(F)F)ccc12`, the cell number change turned out to be 14.6%. Also, the half-maximal activity concentration (AC50) under setting [1] is 29.1 µM [rising, single point]. `COC(=O)CSc1nnc(CNC(=O)c2ccc(S(=O)(=O)N3CCCCC3)cc2)n1C`: the cell number change turned out to be 1.77%. The AC50 under setting [1] was 32.6 µM [falling, single point]. For the molecule `CCN(C(=O)Cc1c(C(=O)O)[nH]c2ccccc12)c1ccc(OC)cc1`, the cell number change was -44.4%. The half-maximal activity concentration (AC50) under setting [2] is 7.31 µM [falling, partial curve]. Further, under setting [1], the AC50 is 6.51 µM [falling, single point]. With `O=C1c2ccccc2C(=O)N1c1ccc(S(=O)(=O)N2CCCCC2)cc1`, the cell number change was -8.42%. Also, the concentration at half-maximal activity (AC50) under setting [1] was 20.6 µM [falling, single point]. Turning to `CCCCCn1c(=NC(=O)c2ccco2)c(C(=O)OCC)cc2c(=O)n3ccccc3nc21`, the cell number change was 4.79%. Also, under setting [1], the AC50 is 0.326 µM [rising, partial curve, poor fit]. Turning to `Cc1ccc(Cl)cc1NC(=O)NCc1cccnc1`, the cell number change was -27.2%. Further, the half-maximal activity concentration (AC50) under setting [1] is 29.1 µM [rising, single point]. Take `CCN(C(=O)CN1CCCCC1C)c1c(N)n(Cc2ccccc2)c(=O)[nH]c1=O` (centres undefined): the AC50 under setting [1] is 0.259 µM [rising, partial curve, poor fit]. On to `CS(=O)(=O)N1CCN(C(=O)NC2CCCCC2)CC1`, for which the cell number change is -1.39%. Consider `CN(C(=O)COC(=O)c1ccc2[nH]c3c(c2c1)CCCC3)C1CCS(=O)(=O)C1` (centres undefined), for which the cell number change amounted to 61.7%. In addition, the half-maximal activity concentration (AC50) under setting [2] is 0.082 µM [rising, full curve, poor fit]. As to `Cc1ccc(-n2nnnc2Sc2ccc(S(=O)(=O)NCCN(C)C)cc2[N+](=O)[O-])cc1`, the cell number change was determined as 33.3%. Under setting [2], the half-maximal activity concentration (AC50) is 1.64 µM [rising, partial curve]. For the same molecule, under setting [1], the AC50 was 20.6 µM [falling, single point]. On to `Cc1nc2ccc(-c3nc4ccccc4[nH]3)cc2[nH]1`, for which the cell number change is -43.9%. Besides, the AC50 under setting [1] is 0.0517 µM [falling, full curve, poor fit]. Turning to `COc1ccc([C@@H]2[C@@H]3C(=O)N(C(C)(C)C)C(=O)[C@@H]3[C@]3(Cc4ccc(Cl)cc4)C(=O)N(c4cccc(F)c4)C(=O)N23)cc1`, the cell number change was -5.68%. Moreover, the AC50 under setting [1] is 0.058 µM [rising, full curve, poor fit]. Regarding `CCc1ncc(CN2CCC(C(=O)Nc3cccc(-c4cscn4)c3)CC2)cn1`, the cell number change is -19.3%. Also, the half-maximal activity concentration (AC50) under setting [1] was 29.1 µM [falling, single point]. `Clc1ccccc1-c1nnc(-c2ccc3c(c2)OCO3)o1`: the cell number change was 16.9%. For the same molecule, the AC50 under setting [1] is 0.13 µM [rising, full curve, poor fit]. Regarding `CCCCNC(=O)/C(C#N)=C/c1ccc(F)cc1F`, the cell number change is -0.136%. The AC50 under setting [2] is 0.116 µM [falling, full curve, poor fit]. In addition, the half-maximal activity concentration (AC50) under setting [1] was 0.116 µM [falling, full curve]. `COc1cc(C(=O)O)ccc1Cl`: the cell number change is -11.8%. Also, the AC50 under setting [1] is 0.00461 µM [falling, full curve, poor fit]. Take `COc1ccnc(Oc2ccc(F)cc2)c1C(=O)N/C=N/OCc1ccccc1`: the cell number change was determined as 26.2%. For the molecule `CCCC(C(=O)NC(C)(C)CC)N(Cc1ccco1)C(=O)CNS(=O)(=O)c1ccccc1` (centres undefined), the cell number change is -17.9%. In the case of `Cc1ccc(Oc2cc(NC(=O)CCCn3nc([N+](=O)[O-])cc3C)cc([N+](=O)[O-])c2)cc1`, the cell number change was -2.44%. Also, under setting [1], the concentration at half-maximal activity (AC50) is 20.6 µM [falling, partial curve, poor fit]. For the molecule `CCOC(=O)c1cnc2ccc(F)cc2c1Nc1ccc2c(c1)OCCO2`, the cell number change was -9.77%. The half-maximal activity concentration (AC50) under setting [1] is 0.146 µM [rising, partial curve].

For the molecule `COC(=O)c1cccc(NCN2C(=O)c3ccccc3C2=O)c1`, the cell number change was found to be 10.7%. Consider `NC(=O)C1CCN(Cc2nnnn2Cc2ccco2)CC1`, for which the cell number change was -4.16%. The half-maximal activity concentration (AC50) under setting [1] was 0.103 µM [falling, full curve, poor fit]. For `NC(=O)c1cn(-c2ccccc2)nc1-c1cc2ccccc2oc1=O`, the AC50 was 0.82 µM [falling, full curve, poor fit] under setting [2] and 6.51 µM [falling, single point] under setting [1]. Take `CCOC(=O)C1CCN(C(=O)c2cc3cc4ccc(C)cc4nc3o2)CC1`: the cell number change amounted to 11.5%. Besides, the AC50 under setting [1] is 0.164 µM [rising, full curve, poor fit]. As to `COc1cccc(NC(=O)COC(=O)/C=C/c2ccco2)c1`, the cell number change worked out at 11.1%. Besides, the concentration at half-maximal activity (AC50) under setting [1] was 10.3 µM [rising, partial curve, poor fit].

As for `CCn1c(SCc2nc3ccccc3c(=O)[nH]2)nnc1C(C)NC(=O)c1ccccc1` (centres undefined), the cell number change was -8.39%. Moreover, under setting [1], the AC50 is 0.00411 µM [rising, full curve, poor fit]. For the molecule `COc1ccccc1OCC(=O)Nc1cc(C(F)(F)F)ccc1-n1cncn1`, the AC50 under setting [2] is 0.82 µM [rising, partial curve, poor fit] and the AC50 under setting [1] was 0.58 µM [falling, partial curve, poor fit]. As to `Cc1ccc(N(C)C(=O)C2CCCN2S(=O)(=O)c2cccc3nsnc23)cc1` (centres undefined), the cell number change worked out at 26.2%. Also, the concentration at half-maximal activity (AC50) under setting [1] was 9.2 µM [rising, partial curve]. With `O=C(NCCc1ccccc1)C(=O)NCC1OCCN1S(=O)(=O)c1cccs1` (centres undefined), under setting [2], the half-maximal activity concentration (AC50) was 0.0517 µM [rising, full curve, poor fit]. Take `Cc1ccc(C)c(SCC(=O)Nc2oc(C)c3c(C)n[nH]c(=O)c23)c1`: the cell number change was -8.48%. Also, the AC50 under setting [1] is 2.06 µM [rising, partial curve, poor fit].

As for `FC(F)(F)c1ccc(CN2C[C@@H]3C(c4ccccc4)C4(c5ccccc5)CC3(C4)[C@H]2c2ccccc2)cc1` (some centres undefined), the cell number change is -61.9%. In addition, the AC50 under setting [2] was 29.1 µM [falling, single point]. In addition, the AC50 under setting [1] is 20.6 µM [falling, single point].

Consider `CCN(c1ccccc1)S(=O)(=O)c1ccc(NN)nc1`, for which the cell number change is -28.1%. Further, the half-maximal activity concentration (AC50) under setting [2] is 0.0731 µM [falling, full curve, poor fit]. For the same molecule, the concentration at half-maximal activity (AC50) under setting [1] is 23.1 µM [rising, partial curve, poor fit]. With `CCOC(=O)c1c(NC(=O)CNC2CCCCC2)sc(C)c1C`, the cell number change was -31.4%. Moreover, the concentration at half-maximal activity (AC50) under setting [2] is 14.6 µM [falling, single point]. For the same molecule, the concentration at half-maximal activity (AC50) under setting [1] was 23.1 µM [falling, partial curve].

Consider `Cc1cc(/C=C(\C#N)C(=O)O)c(C)n1C1CC1`, for which the cell number change is -33.3%. Moreover, the concentration at half-maximal activity (AC50) under setting [2] is 32.6 µM [falling, single point]. With `COc1cc(Cl)ccc1OCc1cc(C(=O)N(C)Cc2cn(C)nc2C)no1`, the AC50 under setting [2] is 2.06 µM [rising, partial curve]. `CCN1C/C(=C/c2ccc(N3CCOCC3)cc2)C(=O)/C(=C/c2ccc(N3CCOCC3)cc2)C1`: the cell number change is -96.5%. For the same molecule, under setting [2], the concentration at half-maximal activity (AC50) is 16.4 µM [falling, single point]. Further, the AC50 under setting [1] was 5.8 µM [falling, full curve]. For the molecule `CC(C)NC(=O)NC(=O)CSc1nncn1C`, under setting [1], the half-maximal activity concentration (AC50) was 0.82 µM [falling, full curve, poor fit]. As for `O=C(CSc1nnc(NC(=O)c2c(F)cccc2F)s1)Nc1ccc(F)cc1`, the half-maximal activity concentration (AC50) under setting [1] was 20.6 µM [rising, partial curve, poor fit]. On to `CC(Sc1ncn[nH]1)C(=O)c1c(N)n(C)c(=O)n(C)c1=O` (centres undefined), for which the cell number change is -10.4%. Further, the AC50 under setting [1] was 29.1 µM [rising, single point]. On to `COC(=O)c1ccccc1NC(=O)c1ccc(-c2cccc(Cl)c2)o1`, for which the concentration at half-maximal activity (AC50) under setting [1] was 6.51 µM [falling, single point].

With `C=CCNC(=O)CSc1nnc(-c2ccc(S(=O)(=O)N3CCCC3)cc2)n1C`, the cell number change was -10.5%. Turning to `COc1ccc(C)cc1NC(=O)NC1CCCc2ccccc21` (centres undefined), the cell number change came to 16.4%. Further, the AC50 under setting [1] was 10 µM [rising, partial curve, poor fit]. As for `CC(C)(C)NC(=O)C(c1c[nH]c2ccccc12)N(C(=O)Cn1nnc(-c2ccc(Cl)cc2)n1)c1ccccc1F` (centres undefined), the cell number change is 21.8%. Further, the concentration at half-maximal activity (AC50) under setting [1] is 5.8 µM [rising, single point]. As to `COc1ccc(N(C(C)C(=O)NCCSCc2cccc(Cl)c2)S(C)(=O)=O)cc1` (centres undefined), the cell number change came to 19.3%. In addition, the half-maximal activity concentration (AC50) under setting [1] is 0.146 µM [falling, single point]. On to `O=C(NC1CCCc2ccccc21)c1cccnc1` (centres undefined), for which the cell number change was -9.19%. Take `COc1ccc(NC(=S)N2CCC(C(=O)c3ccc(C)cc3)CC2)c(OC)c1`: the cell number change came to 10.7%. For the same molecule, under setting [1], the AC50 is 0.82 µM [falling, full curve].

Turning to `CCN(CC)c1ccc(NC(=O)c2cccc(OC)c2)c(C)c1`, the cell number change worked out at 3.84%. Besides, the AC50 under setting [1] was 6.51 µM [rising, single point]. For the molecule `O=C(Nc1ccc(F)c(F)c1)C1CCCN(S(=O)(=O)c2cccc3nonc23)C1` (centres undefined), the cell number change worked out at 92.8%. Moreover, the concentration at half-maximal activity (AC50) under setting [2] is 20.6 µM [rising, single point].

Consider `Cc1nc2ccccn2c1-c1ccnc(SCc2ccc(Cl)cc2)n1`, for which the cell number change was -19.2%. Moreover, under setting [1], the half-maximal activity concentration (AC50) is 29.1 µM [falling, single point]. Take `Cc1cc(=O)n2c3ccccc3n(CC(O)CN3CCCCC3)c2c1C#N` (centres undefined): the cell number change was -2.11%. In the case of `CC(=O)Nc1c(O)nc(SCc2ccccc2C#N)[nH]c1=O`, the cell number change was -25.9%. The AC50 under setting [1] was 4.11 µM [falling, full curve, poor fit].

Take `CCOC(=O)c1cccc(-c2c(-c3ccccc3)ncc3cc(OC)c(OC)cc23)c1`: the cell number change is -32.3%. Further, the half-maximal activity concentration (AC50) under setting [2] is 8.2 µM [falling, single point]. Moreover, the concentration at half-maximal activity (AC50) under setting [1] is 18.4 µM [falling, single point]. Consider `CCC1=NN(C(=O)CCc2ccc3c(c2)OCO3)C(O)(C(F)(F)F)C1` (centres undefined), for which the cell number change amounted to 26.3%. For the same molecule, under setting [1], the half-maximal activity concentration (AC50) was 0.092 µM [rising, full curve, poor fit]. In the case of `Cc1cc(NC(=O)CSc2nnc3ccccn23)no1`, the cell number change was -71.4%. As for `Cc1ccnc(SCC(=O)Nc2c(C)n(C)n(-c3ccccc3)c2=O)n1`, the concentration at half-maximal activity (AC50) under setting [1] is 29.1 µM [falling, single point].

Turning to `CC(=O)c1c(O)c(C)c(O)c2c1OC1=CC(=O)C(C(C)=O)C(=O)[C@@]12C` (some centres undefined), the cell number change amounted to 20.8%. Take `COc1ccc(-c2cc(C(F)(F)F)n3nc(C)cc3n2)cc1`: the cell number change is 30%. Further, under setting [2], the AC50 was 0.184 µM [rising, full curve, poor fit]. The AC50 under setting [1] was 14.6 µM [rising, partial curve].

For `O=c1c2c3c(sc2nc2n1CCC2)CCCC3`, the cell number change was 21.3%. The AC50 under setting [1] is 0.0058 µM [rising, full curve, poor fit].

The term AC50 denotes the concentration at which the activity in the assay is half-maximal. High values mean activity only at high concentration, low ones activity at low concentration.
